PMC10742089
Results are given in words; binding and its absence hold for the method and conditions named. In cells and extracts the contact can be indirect. Here binding means that the protein was enriched with, or labelled near, the bait; the list need not be complete.

Protein sequences, listed by entry. Tags and fused reporters are not part of them.
UniProt Q13200: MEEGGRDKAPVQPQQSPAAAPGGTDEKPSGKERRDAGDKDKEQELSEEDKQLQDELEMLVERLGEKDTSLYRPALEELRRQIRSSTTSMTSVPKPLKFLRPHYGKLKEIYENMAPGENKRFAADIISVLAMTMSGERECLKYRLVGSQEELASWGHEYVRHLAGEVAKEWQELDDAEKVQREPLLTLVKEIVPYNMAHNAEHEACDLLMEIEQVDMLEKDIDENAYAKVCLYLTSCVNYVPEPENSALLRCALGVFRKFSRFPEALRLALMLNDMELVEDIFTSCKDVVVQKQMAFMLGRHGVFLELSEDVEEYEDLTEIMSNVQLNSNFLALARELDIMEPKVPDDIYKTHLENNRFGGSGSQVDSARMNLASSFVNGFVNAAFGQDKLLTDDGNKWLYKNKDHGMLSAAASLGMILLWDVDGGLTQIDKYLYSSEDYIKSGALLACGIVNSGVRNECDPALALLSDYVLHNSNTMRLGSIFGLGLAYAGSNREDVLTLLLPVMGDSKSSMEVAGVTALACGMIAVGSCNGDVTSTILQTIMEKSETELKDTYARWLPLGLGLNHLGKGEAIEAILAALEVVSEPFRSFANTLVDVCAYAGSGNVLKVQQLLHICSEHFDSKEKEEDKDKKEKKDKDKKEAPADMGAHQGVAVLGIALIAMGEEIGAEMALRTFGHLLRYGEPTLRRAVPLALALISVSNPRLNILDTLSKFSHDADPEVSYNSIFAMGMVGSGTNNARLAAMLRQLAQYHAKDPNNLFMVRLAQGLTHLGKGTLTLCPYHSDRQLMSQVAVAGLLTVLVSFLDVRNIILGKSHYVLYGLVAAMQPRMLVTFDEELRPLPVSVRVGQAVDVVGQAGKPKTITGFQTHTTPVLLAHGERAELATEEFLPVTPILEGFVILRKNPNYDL
UniProt Q15008: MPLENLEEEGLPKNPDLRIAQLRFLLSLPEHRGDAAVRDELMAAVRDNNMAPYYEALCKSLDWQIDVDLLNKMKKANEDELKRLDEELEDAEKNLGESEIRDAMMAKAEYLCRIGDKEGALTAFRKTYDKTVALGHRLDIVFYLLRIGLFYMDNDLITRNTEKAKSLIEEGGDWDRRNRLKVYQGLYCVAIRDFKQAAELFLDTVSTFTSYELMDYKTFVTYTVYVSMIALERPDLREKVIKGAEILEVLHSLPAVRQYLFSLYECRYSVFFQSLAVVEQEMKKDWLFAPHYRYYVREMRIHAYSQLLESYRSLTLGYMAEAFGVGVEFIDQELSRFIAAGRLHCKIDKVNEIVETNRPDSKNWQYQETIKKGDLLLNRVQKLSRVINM

What was measured:
[1] = molecular target: mEGFP-iso6 (FMRP nuclear isoform iso6 fused to GFP) (human) (UniProt Q06787); assay: affinity purification with mass spectrometry; first screen (mild stringency): GFP-Trap magnetic agarose on whole-cell lysate of U2OS stably expressing GFP-iso6, lysate treated with turbonuclease, 2 h at 4 C; LC-MS/MS; SAINTexpress against 2 GFP-free U2OS controls, <1% FDR and fold change >1.5
[2] = molecular target: mEGFP-iso6 (FMRP nuclear isoform iso6 fused to GFP) (human) (UniProt Q06787); assay: affinity purification with mass spectrometry; stringent conditions: GFP-Trap on whole-cell lysate of U2OS stably expressing GFP-iso6 or GFP-iso1, half the number of cells of the first screen, 6 GFP-free U2OS controls, <=1% FDR; cells mock-treated or treated with aphidicolin (APH) for 24 h

Row | Molecule | binding [1] | binding [2]
1 | AURKB (from UniProt Q96GD4 1-344) | binds | binds
2 | PSMD2 (from UniProt Q13200 1-908) | binds | binds
3 | PSMD6 (from UniProt Q15008 1-389) | binds | binds
4 | TRMT1L (protein, UniProt Q7Z2T5 1-733) MENMAEEELLPLEKEEVEVAQVQVPTPARDSAGVPAPAPDSALDSAPTPASAPAPAPALAQAPALSPSLASAPEEAKSKRHISIQRQLADLENLAFVTDGNFDSASSLNSDNLDAGNRQACPLCPKEKFRACNSHKLRRHLQNLHWKVSVEFEGYRMCICHLPCRPVKPNIIGEQITSKMGAHYHCIICSATITRRTDMLGHVRRHMNKGETKSSYIAASTAKPPKEILKEADTDVQVCPNYSIPQKTDSYFNPKMKLNRQLIFCTLAALAEERKPLECLDAFGATGIMGLQWAKHLGNAVKVTINDLNENSVTLIQENCHLNKLKVVVDSKEKEKSDDILEEGEKNLGNIKVTKMDANVLMHLRSFDFIHLDPFGTSVNYLDSAFRNIRNLGIVSVTSTDISSLYAKAQHVARRHYGCNIVRTEYYKELAARIVVAAVARAAARCNKGIEVLFAVALEHFVLVVVRVLRGPTSADETAKKIQYLIHCQWCEERIFQKDGNMVEENPYRQLPCNCHGSMPGKTAIELGPLWSSSLFNTGFLKRMLFESLHHGLDDIQTLIKTLIFESECTPQSQFSIHASSNVNKQEENGVFIKTTDDTTTDNYIAQGKRKSNEMITNLGKKQKTDVSTEHPPFYYNIHRHSIKGMNMPKLKKFLCYLSQAGFRVSRTHFDPMGVRTDAPLMQFKSILLKYSTPTYTGGQSESHVQSASEDTVTERVEMSVNDKAEASGCRRW | binds | binds
5 | CEBPZ (protein, UniProt Q03701 1-1054) MAAVKEPLEFHAKRPWRPEEAVEDPDEEDEDNTSEAENGFSLEEVLRLGGTKQDYLMLATLDENEEVIDGGKKGAIDDLQQGELEAFIQNLNLAKYTKASLVEEDEPAEKENSSKKEVKIPKINNKNTAESQRTSVNKVKNKNRPEPHSDENGSTTPKVKKDKQNIFEFFERQTLLLRPGGKWYDLEYSNEYSLKPQPQDVVSKYKTLAQKLYQHEINLFKSKTNSQKGASSTWMKAIVSSGTLGDRMAAMILLIQDDAVHTLQFVETLVNLVKKKGSKQQCLMALDTFKELLITDLLPDNRKLRIFSQRPFDKLEQLSSGNKDSRDRRLILWYFEHQLKHLVAEFVQVLETLSHDTLVTTKTRALTVAHELLCNKPEEEKALLVQVVNKLGDPQNRIATKASHLLETLLCKHPNMKGVVSGEVERLLFRSNISSKAQYYAICFLNQMALSHEESELANKLITVYFCFFRTCVKKKDVESKMLSALLTGVNRAYPYSQTGDDKVREQIDTLFKVLHIVNFNTSVQALMLLFQVMNSQQTISDRYYTALYRKMLDPGLMTCSKQAMFLNLVYKSLKADIVLRRVKAFVKRLLQVTCQQMPPFICGALYLVSEILKAKPGLRSQLDDHPESDDEENFIDANDDEDMEKFTDADKETEIVKKLETEETVPETDVETKKPEVASWVHFDNLKGGKQLNKYDPFSRNPLFCGAENTSLWELKKLSVHFHPSVALFAKTILQGNYIQYSGDPLQDFTLMRFLDRFVYRNPKPHKGKENTDSVVMQPKRKHFIKDIRHLPVNSKEFLAKEESQIPVDEVFFHRYYKKVAVKEKQKRDADEESIEDVDDEEFEELIDTFEDDNCFSSGKDDMDFAGNVKKRTKGAKDNTLDEDSEGSDDELGNLDDDEVSLGSMDDEEFAEVDEDGGTFMDVLDDESESVPELEVHSKVSTKKSKRKGTDDFDFAGSFQGPRKKKRNLNDSSLFVSAEEFGHLLDENMGSKFDNIGMNAMANKDNASLKQLRWEAERDDWLHNRDAKSIIKKKKHFKKKRIKTTQKTKKQRK | binds | 
6 | PRPF3 (protein, UniProt O43395 1-683) MALSKRELDELKPWIEKTVKRVLGFSEPTVVTAALNCVGKGMDKKKAADHLKPFLDDSTLRFVDKLFEAVEEGRSSRHSKSSSDRSRKRELKEVFGDDSEISKESSGVKKRRIPRFEEVEEEPEVIPGPPSESPGMLTKLQIKQMMEAATRQIEERKKQLSFISPPTPQPKTPSSSQPERLPIGNTIQPSQAATFMNDAIEKARKAAELQARIQAQLALKPGLIGNANMVGLANLHAMGIAPPKVELKDQTKPTPLILDEQGRTVDATGKEIELTHRMPTLKANIRAVKREQFKQQLKEKPSEDMESNTFFDPRVSIAPSQRQRRTFKFHDKGKFEKIAQRLRTKAQLEKLQAEISQAARKTGIHTSTRLALIAPKKELKEGDIPEIEWWDSYIIPNGFDLTEENPKREDYFGITNLVEHPAQLNPPVDNDTPVTLGVYLTKKEQKKLRRQTRREAQKELQEKVRLGLMPPPEPKVRISNLMRVLGTEAVQDPTKVEAHVRAQMAKRQKAHEEANAARKLTAEQRKVKKIKKLKEDISQGVHISVYRVRNLSNPAKKFKIEANAGQLYLTGVVVLHKDVNVVVVEGGPKAQKKFKRLMLHRIKWDEQTSNTKGDDDEESDEEAVKKTNKCVLVWEGTAKDRSFGEMKFKQCPTENMAREHFKKHGAEHYWDLALSESVLESTD | binds | 
7 | PPP1R10 (protein, UniProt Q96QC0 1-940) MGSGPIDPKELLKGLDSFLNRDGEVKSVDGISKIFSLMKEARKMVSRCTYLNILLQTRSPEILVKFIDVGGYKLLNNWLTYSKTTNNIPLLQQILLTLQHLPLTVDHLKQNNTAKLVKQLSKSSEDEELRKLASVLVSDWMAVIRSQSSTQPAEKDKKKRKDEGKSRTTLPERPLTEVKAETRAEEAPEKKREKPKSLRTTAPSHAKFRSTGLELETPSLVPVKKNASTVVVSDKYNLKPIPLKRQSNVAAPGDATPPAEKKYKPLNTTPNATKEIKVKIIPPQPMEGLGFLDALNSAPVPGIKIKKKKKVLSPTAAKPSPFEGKTSTEPSTAKPSSPEPAPPSEAMDADRPGTPVPPVEVPELMDTASLEPGALDAKPVESPGDPNQLTRKGRKRKSVTWPEEGKLREYFYFELDETERVNVNKIKDFGEAAKREILSDRHAFETARRLSHDNMEEKVPWVCPRPLVLPSPLVTPGSNSQERYIQAEREKGILQELFLNKESPHEPDPEPYEPIPPKLIPLDEECSMDETPYVETLEPGGSGGSPDGAGGSKLPPVLANLMGSMGAGKGPQGPGGGGINVQEILTSIMGSPNSHPSEELLKQPDYSDKIKQMLVPHGLLGPGPIANGFPPGGPGGPKGMQHFPPGPGGPMPGPHGGPGGPVGPRLLGPPPPPRGGDPFWDGPGDPMRGGPMRGGPGPGPGPYHRGRGGRGGNEPPPPPPPFRGARGGRSGGGPPNGRGGPGGGMVGGGGHRPHEGPGGGMGNSSGHRPHEGPGGGMGSGHRPHEGPGGSMGGGGGHRPHEGPGGGISGGSGHRPHEGPGGGMGAGGGHRPHEGPGGSMGGSGGHRPHEGPGHGGPHGHRPHDVPGHRGHDHRGPPPHEHRGHDGPGHGGGGHRGHDGGHSHGGDMSNRPVCRHFMMKGNCRYENNCAFYHPGVNGPPLP | binds | 
8 | UTP14a (protein, UniProt Q9BVJ6 1-771) MTANRLAESLLALSQQEELADLPKDYLLSESEDEGDNDGERKHQKLLEAISSLDGKNRRKLAERSEASLKVSEFNVSSEGSGEKLVLADLLEPVKTSSSLATVKKQLSRVKSKKTVELPLNKEEIERIHREVAFNKTAQVLSKWDPVVLKNRQAEQLVFPLEKEEPAIAPIEHVLSGWKARTPLEQEIFNLLHKNKQPVTDPLLTPVEKASLRAMSLEEAKMRRAELQRARALQSYYEAKARREKKIKSKKYHKVVKKGKAKKALKEFEQLRKVNPAAALEELEKIEKARMMERMSLKHQNSGKWAKSKAIMAKYDLEARQAMQEQLSKNKELTQKLQVASESEEEEGGTEDVEELLVPDVVNEVQMNADGPNPWMLRSCTSDTKEAATQEDPEQLPELEAHGVSESEGEERPVAEEEILLREFEERRSLRKRSELSQDAEPAGSQETKDSGSQEVLSELRVLSQKLKENHQSRKQKASSEGTIPQVQREEPAPEEEEPLLLQRPERVQTLEELEELGKEECFQNKELPRPVLEGQQSERTPNNRPDAPKEKKKKEQMIDLQNLLTTQSPSVKSLAVPTIEELEDEEERNHRQMIKEAFAGDDVIRDFLKEKREAVEASKPKDVDLTLPGWGEWGGVGLKPSAKKRRRFLIKAPEGPPRKDKNLPNVIINEKRNIHAAAHQVRVLPYPFTHHWQFERTIQTPIGSTWNTQRAFQKLTTPKVVTKPGHIINPIKAEDVGYRSSSRSDLSVIQRNPKRITTRHKKQLKKCSVD | binds | 
9 | PRPF6 (protein, UniProt O94906 1-941) MNKKKKPFLGMPAPLGYVPGLGRGATGFTTRSDIGPARDANDPVDDRHAPPGKRTVGDQMKKNQAADDDDEDLNDTNYDEFNGYAGSLFSSGPYEKDDEEADAIYAALDKRMDERRKERREQREKEEIEKYRMERPKIQQQFSDLKRKLAEVTEEEWLSIPEVGDARNKRQRNPRYEKLTPVPDSFFAKHLQTGENHTSVDPRQTQFGGLNTPYPGGLNTPYPGGMTPGLMTPGTGELDMRKIGQARNTLMDMRLSQVSDSVSGQTVVDPKGYLTDLNSMIPTHGGDINDIKKARLLLKSVRETNPHHPPAWIASARLEEVTGKLQVARNLIMKGTEMCPKSEDVWLEAARLQPGDTAKAVVAQAVRHLPQSVRIYIRAAELETDIRAKKRVLRKALEHVPNSVRLWKAAVELEEPEDARIMLSRAVECCPTSVELWLALARLETYENARKVLNKARENIPTDRHIWITAAKLEEANGNTQMVEKIIDRAITSLRANGVEINREQWIQDAEECDRAGSVATCQAVMRAVIGIGIEEEDRKHTWMEDADSCVAHNALECARAIYAYALQVFPSKKSVWLRAAYFEKNHGTRESLEALLQRAVAHCPKAEVLWLMGAKSKWLAGDVPAARSILALAFQANPNSEEIWLAAVKLESENDEYERARRLLAKARSSAPTARVFMKSVKLEWVQDNIRAAQDLCEEALRHYEDFPKLWMMKGQIEEQKEMMEKAREAYNQGLKKCPHSTPLWLLLSRLEEKIGQLTRARAILEKSRLKNPKNPGLWLESVRLEYRAGLKNIANTLMAKALQECPNSGILWSEAIFLEARPQRRTKSVDALKKCEHDPHVLLAVAKLFWSQRKITKAREWFHRTVKIDSDLGDAWAFFYKFELQHGTEEQQEEVRKRCESAEPRHGELWCAVSKDIANWQKKIGDILRLVAGRIKNTF | binds | 
